This data set concerns 5′-GMP. As to the kind of experiment: 5′-GMP binding upon blue light irradiation (1H NMR). As to conditions: 420 nm, 2 mM complex (1 mM for 29) in PBS/D2O pH* 7.4, 2 mol eq. 5′-GMP, error 5–10 %.
Take “trans,trans,trans-[Pt(N3)2(OH)2(4-picoline)2] [Complex 26]”: the “% Binding of 5′-GMP” value came out at 64%.
“trans,trans,trans-[Pt(N3)2(OH)2(1-methylimidazole)2] [Complex 32]”: the “% Binding of 5′-GMP” value stood at 48%.
For the substance “trans,trans,trans-[Pt(N3)2(OH)2(thiazole)2] [Complex 29]”, the “% Binding of 5′-GMP” value worked out at 80%.
To “trans,trans,trans-[Pt(N3)2(OH)2(3-picoline)2] [Complex 23]” belongs 68%.

The record behind these values is PMC6844273, “Platinum(IV) dihydroxido diazido N-(heterocyclic)imine complexes are potently photocytotoxic when irradiated with visible light” (Chemical Science, 2019).
